Drawing on ChEMBL document CHEMBL1157874, “Synthesis, spectroscopic and biological studies on the new symmetric Schiff base derived from 2,6-diformyl-4-methylphenol with N-aminopyrimidine” (2010), this text covers MIC for two compounds.

Common to all, as to assay type: functional
The subject of experiment [1] is Staphylococcus aureus. In words: Antibacterial activity against Staphylococcus aureus ATCC 6538 after 18 hrs by broth microdilution assay. The following applies: ATCC 6538, 18 h. For orientation: Broth dilution looks for growth in wells or tubes with falling amounts of substance.
The subject of a further experiment is Escherichia coli. In words: Antibacterial activity against Escherichia coli ATCC 4230 after 18 hrs by broth microdilution assay. The following applies: ATCC 4230, 18 h.
Experiment [2] has as its system Staphylococcus aureus. Kind of experiment: Antibacterial activity against Staphylococcus aureus ATCC 25923 after 18 hrs by broth microdilution assay. The following applies: ATCC 25923, 18 h.
For the next experiment, the system named is Candida albicans. In words: Antifungal activity against Candida albicans ATCC 14053 after 18 hrs by broth microdilution assay. The following applies: ATCC 14053, 18 h.
For the next experiment, the system named is Candida parapsilosis. Kind of experiment: Antifungal activity against Candida parapsilosis ATCC 22019 after 18 hrs by broth microdilution assay. To be noted: Lodderomyces parapsilosis, ATCC 22019, 18 h.

In brackets after ≈: the same amount, converted by molar mass.

As usually defined, the MIC is the lowest concentration that inhibits growth of the organism. The low end stands for greater potency, the high end for weaker potency. Consider `CC1(C)S[C@@H]2[C@H](NC(=O)[C@H](N)c3ccccc3)C(=O)N2[C@H]1C(=O)O` [AMPICILLIN], for which the MIC turned out to be 5 µg/mL (≈ 14.3 µM) in the experiment on Staphylococcus aureus [1], 20 µg/mL (≈ 57.2 µM) against Escherichia coli and 10 µg/mL (≈ 28.6 µM) in the experiment on Staphylococcus aureus [2].

With `OC(Cn1cncn1)(Cn1cncn1)c1ccc(F)cc1F` [FLUCONAZOLE], the MIC against Candida albicans and in the experiment with Candida parapsilosis was 5 µg/mL (≈ 16.3 µM) throughout.
